## Library screen at single concentrations

Data taken from ChEMBL document CHEMBL3988442, “University of Dundee, Small-Polar-MMV Screening Library” (2021).

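Whole-parasite assay of Trypanosoma brucei over 72 hours; the read-out is not stated. Concentration: 30 µM. The record gives no direction; compounds that gave an IC50 in retests scored well above the rest, so higher reads as stronger inhibition. Values scatter widely below zero; nearly all retest evidence comes from the higher of the two concentrations used. About 64,000 compounds were tested under these conditions; 1.5% (about 940) showed 50% or more at least once.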

Values are the deposited “Percent Effect”, in %.
The record does not define 0% and 100%; most values in the screen are far below 50% and negative numbers occur (in some assays of this library far below -100).
This is an unselected part of the compounds tested.

compound,Percent Effect
CN(C)c1nccc(C2CN(c3cnccn3)CCO2)n1 (stereo not shown),-1.268
CCC(C)NC(=O)CCNC(=O)c1c[nH]cc1-c1cccc(OC)c1 (stereo not shown),-25.47
Cc1ccoc1C(=O)N1CCCC(c2cc(C(F)(F)F)[nH]n2)C1 (stereo not shown),11.31
O=C(O)C(F)(F)F.O=C(O)C(F)(F)F.[H][C@@]12C[C@H](C(=O)Nc3cccnc3)CN(Cc3ccc(F)cc3)[C@]1([H])CCO2,46.52
Cc1cc(NC(=O)CNC(C)(C)c2ccc3c(c2)OCO3)on1,4.742
[H][C@@]12CCN(C[C@@H]1CN1CCCCC1)[C@@H](CNC(=O)Nc1ccsc1)C2,8.415
CCNc1ncc(C(=O)NCCc2csc(-c3ncccn3)n2)cn1,-87.27
COCCN(Cc1cnn(C)c1)Cc1ccc(C)o1,-11.24
COCCNC(=O)CCn1ncc2c(Cl)cccc21,-10.63
COCCn1ccnc1C1CCCN(C(=O)c2cc(F)cc(F)c2)C1 (stereo not shown),-8.683
O=C(CNC(Cn1cccn1)c1ccccc1)Nc1cnccn1 (stereo not shown),-25.31
O=C(Cn1nnc(-c2ccc(F)cc2)n1)N1CCOCC(O)C1 (stereo not shown),-26.01
O=C(C1CC(=O)N(C2CC2)C1)N1CCN(CCn2cccc2)CC1 (stereo not shown),-2.168
CCC(CNS(C)(=O)=O)Oc1ccccc1C (stereo not shown),1.734
CCNC(=O)C1CCN(Cc2ccc(C(=O)Nc3cnns3)cc2)C1 (stereo not shown),-25.72
Cn1cccc1C(=O)N1CCn2cc(CNC(=O)CC3CC3)nc2C1,13.19
CN(CCO)Cc1nnc(C2CCN(C(=O)c3ccccn3)CC2)n1C,3.719
O=C(Nc1ccccc1N1CCOC1=O)N1CCSCC1,-45.09
Cc1cccc(-c2ccc(C(=O)NCC(C)(C)C(N)=O)c(=O)[nH]2)c1,21.63
CC(=O)NC1(C(=O)N2CCC(Nc3cccnn3)CC2)CCCCC1,-40.61
CN1CCN(Cc2ccc(F)cc2)Cc2cccnc21,30.55
COCc1ncc(CN(Cc2ccco2)C(C)C(C)C)cn1 (stereo not shown),-19.95
Cc1cccc(-c2nccnc2C2CCCN(C)C2)c1C (stereo not shown),-17.62
O=C(Nc1cnn(CCN2CCOCC2)c1)c1ccccc1O,15.79
[H][C@@]12CS(=O)(=O)C[C@]1([H])N(S(=O)(=O)c1ccccc1)CCN2C(=O)COC,-36.31
O=C(O)C(F)(F)F.O=C1CCCN1Cc1nnc2n1CCN(Cc1ccccn1)CC2,-8.188
CN1CC(=O)N(c2cccc(F)c2)CC12CCN(Cc1ccco1)C2 (stereo not shown),-49.41
CN(C)C(C)(C)CNCc1cn(C)nc1-c1cccnc1.Cl,-18.54
O=C(NCCc1ccc(F)cc1)NC1CCCc2c1cnn2CCO (stereo not shown),-9.75
CN(C)C(=O)Cc1ccc(NC(=O)NC2CC2)cc1,-38.28
O=C(Nc1cccnc1)NC1CCN(c2ccccc2OC(F)F)C1 (stereo not shown),-24.57
COc1ccc(C)cc1-n1c(COC(C)C)n[nH]c1=O,-5.305
O=C(NCCc1ccccc1)NCC(O)c1cccs1 (stereo not shown),9.956
CCC(C(=O)NCc1nc(C)cc(C(F)(F)F)n1)n1cccn1 (stereo not shown),2.102
Cc1nc(CNC(=O)NCC(O)c2cccc(Cl)c2)cs1 (stereo not shown),-18.72
O=C(O)C(F)(F)F.O=C(O)C(F)(F)F.O[C@H]1CCN(CC2CC2)[C@H]1Cc1ccncc1,-78.44
CC(NC1CCCC1)c1ccccc1-n1cccn1 (stereo not shown),-39.27
O=C(COc1ccccc1)N(Cc1ccncc1)C1CC1,-19.65
[H][C@@]12CCCN1C[C@@H](Cc1ccccc1)N(Cc1cnn(C=C)c1C)C2,-12.51
CN(C)c1cc(C2CCCN(S(=O)(=O)C3CCCC3)C2)ccn1 (stereo not shown),2.317
O[C@@H]1CN(Cc2cnccn2)C[C@H]1Oc1ccccc1,-11.31
CC(OCC1CC1)C(=O)N1CCCN(c2ncccc2C#N)CC1 (stereo not shown),-25.13
COc1ccc(S(=O)(=O)N2CCC(Cn3ccnc3)CC2)cc1,-7.943
CN(C(=O)c1ccc[nH]1)C1CCC(NC(=O)OC(C)(C)C)CC1 (stereo not shown),-47.2
CCc1cnc(N)nc1NCc1ccc(OC)c(OC)c1,-7.388
C1CCC(c2nn3c(C4CCCO4)nnc3s2)C1 (stereo not shown),2.387
CS(=O)(=O)NCCC1CCCCN1C(=O)NCCc1ccccc1 (stereo not shown),3.342
[H][C@@]12CS(=O)(=O)C[C@]1([H])N(Cc1ccc(F)cc1)CCN2C(=O)C1CCC1,-30.16
CCn1ccnc1CN1CCN(C(C)C(=O)N2CCCC2)CC1 (stereo not shown),-10.69
CC(C)c1cc(CNC(=O)NCc2cccc(N3CC=CC3)c2)on1,-12.08
CCNc1ncc(C(=O)N2CCOC(CCCc3ccccc3)C2)cn1 (stereo not shown),-50.62
CCOC(=O)C1=NOC(Cc2cc(OC)c3c(c2)OCO3)C1 (stereo not shown),-31.32
CNS(=O)(=O)c1cccc(C(C)NCc2ccncc2)c1 (stereo not shown),-21.76
O=C(O)C(F)(F)F.O=C(O)C(F)(F)F.[H][C@@]12COC[C@]1(COCc1ccccn1)CN(c1cc(OC)ncn1)C2,-23.44
O=S(=O)(c1ccc2c(c1)OCCO2)N1CCc2ccccc2C1,34.08

6 of the entries, repeated:

CC(NC1CCCC1)c1ccccc1-n1cccn1 (stereo not shown) read -39.27%.
O=C(NCCc1ccccc1)NCC(O)c1cccs1 (stereo not shown) read 9.956%.
Cc1cccc(-c2ccc(C(=O)NCC(C)(C)C(N)=O)c(=O)[nH]2)c1 read 21.63%.
COCc1ncc(CN(Cc2ccco2)C(C)C(C)C)cn1 (stereo not shown) read -19.95%.
O=C(COc1ccccc1)N(Cc1ccncc1)C1CC1 read -19.65%.
CN(C)c1cc(C2CCCN(S(=O)(=O)C3CCCC3)C2)ccn1 (stereo not shown) read 2.317%.